Measured values taken from paper doi:10.1101/2021.07.08.451585.
No constants are given. Whether binding was seen depends on the method and setting. In cells and extracts the contact can be indirect. These calls come from enrichment with a bait or labelling near it, and not all partners need be listed. Tags and fused reporters may be left off the sequences shown.

Amino acid sequences for entries named in this document (tags omitted).
UniProt Q96R06: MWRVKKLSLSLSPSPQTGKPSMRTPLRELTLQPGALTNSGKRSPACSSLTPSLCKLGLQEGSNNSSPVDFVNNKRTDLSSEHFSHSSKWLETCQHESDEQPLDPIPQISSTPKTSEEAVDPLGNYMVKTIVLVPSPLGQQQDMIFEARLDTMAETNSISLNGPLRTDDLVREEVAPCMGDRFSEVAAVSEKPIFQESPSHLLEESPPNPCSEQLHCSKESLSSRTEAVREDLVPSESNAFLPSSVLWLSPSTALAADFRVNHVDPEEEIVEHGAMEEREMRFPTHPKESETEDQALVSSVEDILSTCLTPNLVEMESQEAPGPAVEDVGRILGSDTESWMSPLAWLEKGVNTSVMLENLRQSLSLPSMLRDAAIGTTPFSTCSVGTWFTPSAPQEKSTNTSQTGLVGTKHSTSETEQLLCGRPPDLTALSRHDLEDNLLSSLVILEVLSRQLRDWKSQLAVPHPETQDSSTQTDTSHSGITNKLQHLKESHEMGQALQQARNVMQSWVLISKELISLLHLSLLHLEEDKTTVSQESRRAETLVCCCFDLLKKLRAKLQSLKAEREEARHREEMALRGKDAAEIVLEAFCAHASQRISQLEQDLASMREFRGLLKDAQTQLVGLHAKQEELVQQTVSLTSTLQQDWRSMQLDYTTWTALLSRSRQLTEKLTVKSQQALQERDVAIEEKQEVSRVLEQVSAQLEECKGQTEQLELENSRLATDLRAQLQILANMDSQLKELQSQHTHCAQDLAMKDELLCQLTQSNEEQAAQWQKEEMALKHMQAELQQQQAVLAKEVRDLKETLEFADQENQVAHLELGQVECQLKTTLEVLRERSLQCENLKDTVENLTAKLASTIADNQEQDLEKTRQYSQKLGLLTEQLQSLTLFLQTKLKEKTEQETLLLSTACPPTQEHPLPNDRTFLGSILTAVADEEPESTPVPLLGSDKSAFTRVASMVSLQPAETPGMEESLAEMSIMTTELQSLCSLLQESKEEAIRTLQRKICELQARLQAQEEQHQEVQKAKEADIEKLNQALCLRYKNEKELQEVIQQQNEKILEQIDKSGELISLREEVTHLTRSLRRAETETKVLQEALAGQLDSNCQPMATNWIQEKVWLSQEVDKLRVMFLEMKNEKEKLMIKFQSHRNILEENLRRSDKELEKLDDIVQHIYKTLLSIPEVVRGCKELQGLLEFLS

Tests used:
[1] = molecular target: T1, BioID2-tagged wildtype human CLUH (BioID2-3xHA-CLUH) (human) (UniProt O75153); assay: proximity labelling
T1 sequence: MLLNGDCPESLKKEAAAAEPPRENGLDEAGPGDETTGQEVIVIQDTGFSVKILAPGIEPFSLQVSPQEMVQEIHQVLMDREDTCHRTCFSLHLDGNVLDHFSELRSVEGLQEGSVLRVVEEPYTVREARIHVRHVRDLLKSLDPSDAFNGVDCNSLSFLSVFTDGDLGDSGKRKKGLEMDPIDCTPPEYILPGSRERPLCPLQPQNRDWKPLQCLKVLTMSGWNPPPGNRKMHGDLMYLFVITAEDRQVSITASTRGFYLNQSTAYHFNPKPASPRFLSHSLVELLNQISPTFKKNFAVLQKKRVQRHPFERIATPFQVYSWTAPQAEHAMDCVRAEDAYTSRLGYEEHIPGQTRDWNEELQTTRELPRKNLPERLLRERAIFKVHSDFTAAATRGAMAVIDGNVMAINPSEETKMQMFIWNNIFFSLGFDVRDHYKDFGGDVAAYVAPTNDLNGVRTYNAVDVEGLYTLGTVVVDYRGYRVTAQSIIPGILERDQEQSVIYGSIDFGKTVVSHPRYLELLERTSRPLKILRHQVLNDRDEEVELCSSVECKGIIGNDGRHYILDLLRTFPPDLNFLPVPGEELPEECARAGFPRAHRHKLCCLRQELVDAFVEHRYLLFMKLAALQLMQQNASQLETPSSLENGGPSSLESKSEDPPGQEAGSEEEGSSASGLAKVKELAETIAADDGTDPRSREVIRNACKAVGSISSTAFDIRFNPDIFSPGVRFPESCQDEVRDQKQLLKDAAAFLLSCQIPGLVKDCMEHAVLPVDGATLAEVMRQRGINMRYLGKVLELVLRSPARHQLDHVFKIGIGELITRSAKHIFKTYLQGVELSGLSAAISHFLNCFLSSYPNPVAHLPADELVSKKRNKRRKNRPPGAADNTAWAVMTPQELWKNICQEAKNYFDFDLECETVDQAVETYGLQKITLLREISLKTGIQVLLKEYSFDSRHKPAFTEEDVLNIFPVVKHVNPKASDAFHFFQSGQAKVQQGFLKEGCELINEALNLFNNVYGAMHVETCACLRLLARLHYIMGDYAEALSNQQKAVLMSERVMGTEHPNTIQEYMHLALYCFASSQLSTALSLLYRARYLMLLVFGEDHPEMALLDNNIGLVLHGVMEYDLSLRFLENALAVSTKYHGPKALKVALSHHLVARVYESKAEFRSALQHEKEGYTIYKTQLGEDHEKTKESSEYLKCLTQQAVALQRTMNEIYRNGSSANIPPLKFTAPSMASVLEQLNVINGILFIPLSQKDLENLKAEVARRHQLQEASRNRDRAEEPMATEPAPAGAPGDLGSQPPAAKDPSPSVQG

[2] = molecular target: T2, human CLUH fused to TurboID in N-terminal (TurboID-CLUH) (human) (UniProt O75153); assay: proximity labelling
T2 sequence: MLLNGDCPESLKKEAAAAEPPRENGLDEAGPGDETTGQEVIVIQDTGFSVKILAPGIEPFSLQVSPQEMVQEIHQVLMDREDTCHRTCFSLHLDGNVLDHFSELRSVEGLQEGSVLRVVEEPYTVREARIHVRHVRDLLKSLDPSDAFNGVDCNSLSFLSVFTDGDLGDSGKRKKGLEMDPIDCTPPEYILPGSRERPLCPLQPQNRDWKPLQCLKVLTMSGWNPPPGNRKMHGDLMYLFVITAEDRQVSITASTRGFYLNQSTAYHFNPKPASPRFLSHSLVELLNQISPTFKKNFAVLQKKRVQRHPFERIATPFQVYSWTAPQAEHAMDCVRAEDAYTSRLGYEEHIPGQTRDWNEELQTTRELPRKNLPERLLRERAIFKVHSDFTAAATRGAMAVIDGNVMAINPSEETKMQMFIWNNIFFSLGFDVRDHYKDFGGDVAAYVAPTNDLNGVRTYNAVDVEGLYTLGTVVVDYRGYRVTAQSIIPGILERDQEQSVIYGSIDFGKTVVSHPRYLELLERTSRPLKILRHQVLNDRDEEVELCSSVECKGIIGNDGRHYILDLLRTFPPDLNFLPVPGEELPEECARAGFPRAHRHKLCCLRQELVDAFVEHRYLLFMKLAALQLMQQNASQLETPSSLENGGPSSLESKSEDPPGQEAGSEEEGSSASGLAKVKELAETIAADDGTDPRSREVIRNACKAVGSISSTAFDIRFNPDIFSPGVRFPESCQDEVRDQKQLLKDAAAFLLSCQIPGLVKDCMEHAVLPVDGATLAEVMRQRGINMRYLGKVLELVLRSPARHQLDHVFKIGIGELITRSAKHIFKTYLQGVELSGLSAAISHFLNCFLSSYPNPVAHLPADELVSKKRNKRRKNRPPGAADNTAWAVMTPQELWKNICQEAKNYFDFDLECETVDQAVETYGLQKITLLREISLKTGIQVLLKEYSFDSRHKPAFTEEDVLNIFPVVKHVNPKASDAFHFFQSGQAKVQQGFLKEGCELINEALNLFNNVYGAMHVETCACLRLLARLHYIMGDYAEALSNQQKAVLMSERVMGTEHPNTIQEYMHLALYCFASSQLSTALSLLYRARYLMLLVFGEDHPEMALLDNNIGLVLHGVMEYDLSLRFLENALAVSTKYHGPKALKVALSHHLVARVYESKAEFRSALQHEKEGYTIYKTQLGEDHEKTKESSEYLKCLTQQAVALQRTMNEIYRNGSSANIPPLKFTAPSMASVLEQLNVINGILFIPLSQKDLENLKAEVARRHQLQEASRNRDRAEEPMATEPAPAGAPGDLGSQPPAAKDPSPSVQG

[3] = molecular target: T3, mouse CLUH (mCLUH) protein fused, in N-terminal, to a modified biotin ligase protein (BioID2-CLUH) (mouse) (UniProt Q5SW19); assay: proximity labelling
T3 sequence: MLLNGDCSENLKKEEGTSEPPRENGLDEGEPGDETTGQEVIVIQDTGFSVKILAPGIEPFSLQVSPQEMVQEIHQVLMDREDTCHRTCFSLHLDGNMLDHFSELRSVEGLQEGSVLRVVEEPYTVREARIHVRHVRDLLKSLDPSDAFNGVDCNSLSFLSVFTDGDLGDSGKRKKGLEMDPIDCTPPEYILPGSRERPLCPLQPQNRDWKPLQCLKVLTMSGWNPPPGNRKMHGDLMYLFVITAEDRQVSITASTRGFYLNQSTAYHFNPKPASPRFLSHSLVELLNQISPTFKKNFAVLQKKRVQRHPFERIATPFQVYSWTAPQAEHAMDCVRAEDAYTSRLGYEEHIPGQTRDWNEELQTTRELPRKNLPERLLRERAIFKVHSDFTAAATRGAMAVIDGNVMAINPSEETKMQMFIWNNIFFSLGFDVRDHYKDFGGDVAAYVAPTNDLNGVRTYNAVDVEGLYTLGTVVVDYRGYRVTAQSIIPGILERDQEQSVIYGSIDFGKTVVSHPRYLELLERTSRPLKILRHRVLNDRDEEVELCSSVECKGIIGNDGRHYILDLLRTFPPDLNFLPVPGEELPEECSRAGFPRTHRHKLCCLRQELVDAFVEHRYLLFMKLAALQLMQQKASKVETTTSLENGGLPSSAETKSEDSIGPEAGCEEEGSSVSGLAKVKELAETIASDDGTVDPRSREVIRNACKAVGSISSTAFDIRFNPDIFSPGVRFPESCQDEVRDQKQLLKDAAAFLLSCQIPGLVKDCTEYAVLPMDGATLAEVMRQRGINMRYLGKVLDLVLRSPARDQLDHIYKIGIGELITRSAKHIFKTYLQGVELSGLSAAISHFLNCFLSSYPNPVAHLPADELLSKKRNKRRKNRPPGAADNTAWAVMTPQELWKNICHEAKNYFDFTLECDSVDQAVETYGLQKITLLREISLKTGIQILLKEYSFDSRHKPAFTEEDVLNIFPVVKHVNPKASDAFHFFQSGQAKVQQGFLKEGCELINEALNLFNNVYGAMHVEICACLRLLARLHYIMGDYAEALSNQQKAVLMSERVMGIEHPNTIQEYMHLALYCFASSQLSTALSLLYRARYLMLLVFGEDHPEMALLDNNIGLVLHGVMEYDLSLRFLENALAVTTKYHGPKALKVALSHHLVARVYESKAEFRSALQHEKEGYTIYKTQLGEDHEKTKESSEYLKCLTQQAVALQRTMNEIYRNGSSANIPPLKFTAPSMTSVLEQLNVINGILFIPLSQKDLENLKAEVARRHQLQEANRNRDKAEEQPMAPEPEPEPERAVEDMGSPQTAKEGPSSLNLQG

[4] = molecular target: T4, mouse CLUH (mCLUH) protein tagged with a triple HA epitope (3xHA) (mouse) (UniProt Q5SW19); assay: affinity purification with mass spectrometry
T4 sequence: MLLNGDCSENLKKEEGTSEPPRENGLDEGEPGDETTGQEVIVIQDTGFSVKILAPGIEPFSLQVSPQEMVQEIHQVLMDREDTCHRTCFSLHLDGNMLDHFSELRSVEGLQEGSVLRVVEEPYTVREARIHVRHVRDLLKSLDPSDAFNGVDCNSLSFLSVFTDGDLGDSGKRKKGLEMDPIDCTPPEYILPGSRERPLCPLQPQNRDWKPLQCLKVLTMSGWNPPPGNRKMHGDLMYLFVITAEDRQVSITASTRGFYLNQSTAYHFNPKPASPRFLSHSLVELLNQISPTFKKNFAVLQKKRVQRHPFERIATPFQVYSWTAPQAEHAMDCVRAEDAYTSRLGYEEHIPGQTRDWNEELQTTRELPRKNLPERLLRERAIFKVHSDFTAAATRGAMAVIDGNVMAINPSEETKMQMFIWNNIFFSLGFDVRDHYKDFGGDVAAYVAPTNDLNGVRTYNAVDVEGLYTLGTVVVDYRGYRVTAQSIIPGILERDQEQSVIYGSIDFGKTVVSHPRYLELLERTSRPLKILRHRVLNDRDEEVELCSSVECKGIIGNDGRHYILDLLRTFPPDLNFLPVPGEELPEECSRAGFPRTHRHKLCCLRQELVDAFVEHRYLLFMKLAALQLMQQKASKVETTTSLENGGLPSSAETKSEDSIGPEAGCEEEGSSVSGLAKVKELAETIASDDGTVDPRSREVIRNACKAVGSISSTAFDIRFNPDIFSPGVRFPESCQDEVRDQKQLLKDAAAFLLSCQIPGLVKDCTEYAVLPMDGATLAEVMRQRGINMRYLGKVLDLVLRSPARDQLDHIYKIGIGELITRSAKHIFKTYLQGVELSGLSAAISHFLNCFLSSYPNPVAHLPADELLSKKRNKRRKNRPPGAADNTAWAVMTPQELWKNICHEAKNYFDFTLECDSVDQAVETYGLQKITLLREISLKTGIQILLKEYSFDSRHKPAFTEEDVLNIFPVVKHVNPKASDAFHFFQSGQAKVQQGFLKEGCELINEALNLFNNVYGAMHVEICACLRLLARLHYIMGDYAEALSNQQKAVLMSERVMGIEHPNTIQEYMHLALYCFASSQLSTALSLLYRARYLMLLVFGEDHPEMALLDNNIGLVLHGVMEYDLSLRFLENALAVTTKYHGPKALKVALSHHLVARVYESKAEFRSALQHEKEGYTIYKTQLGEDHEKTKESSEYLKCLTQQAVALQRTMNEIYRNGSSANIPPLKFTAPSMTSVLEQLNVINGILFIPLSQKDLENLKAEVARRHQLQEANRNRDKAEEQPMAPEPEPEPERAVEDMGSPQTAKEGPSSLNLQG

Measured: binding

SPAG5, endogenous in HCT116 cells (from UniProt Q96R06 1-1193)
binds: all assays above

B1: KNSTRN, endogenous in HCT116 cells (protein, UniProt Q9Y448 1-316)
chain: MAAPEAPPLDRVFRTTWLSTECDSHPLPPSYRKFLFETQAADLAGGTTVAAGNLLNESEKDCGQDRRAPGVQPCRLVTMTSVVKTVYSLQPPSALSGGQPADTQTRATSKSLLPVRSKEVDVSKQLHSGGPENDVTKITKLRRENGQMKATDTATRRNVRKGYKPLSKQKSEEELKDKNQLLEAVNKQLHQKLTETQGELKDLTQKVELLEKFRDNCLAILESKGLDPALGSETLASRQESTTDHMDSMLLLETLQEELKLFNETAKKQMEELQALKVKLEMKEERVRFLEQQTLCNNQVNDLTTALKEMEQLLEM
binds: [2] | [3] | [4]
